PubChem BioAssay AID1347076 (National Center for Advancing Translational Sciences (NCATS), 2019)
Hit rate of the full screen: of about 400,000 compounds, about 13,000 (3.2%) were called active. This list was built around the results that the source calls inconclusive (neither active nor inactive); the mix of calls is not that of the screen. The call rests on the fitted dose curve; in most records, active means well fitted cell-killing curve with a large enough effect; inconclusive means small, poorly fitted or top-dose-only effect, or effect the other way; inactive means flat fitted curve, though single readings scatter. Where the call is inconclusive, the potency comes from a doubtful curve fit.
On the % scale 0 is the no-effect control and ±100 the full control effect; potency means the concentration at half of the fitted maximal effect.

Assay: qHTS assay for MDR1-selective chemotherapeutics: Primary screen using the drug-selected MDR subline cells KB-V1; further: nearly all actives have a fitted effect of over 60% in size
Conditions: KB-V1 MDR cells viability, CellTiter-Glo, 72 h; activity change, negative = cytotoxicity: at 46.1 µM (top of the series)
In short: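 In this primary screen, KB-V1 cells overexpressing P-gp are incubated with library compounds (lowest to highest concentration) for 72 h at 37 degrees C before a luminescent ATP viability read.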
In the case of `CC(C)c1cc(C(=O)N2CCCC(N3CCN(c4ccccc4F)CC3)C2)nc(N)n1` (stereo not drawn), the Potency is reported as inconclusive: 2.06 µM [cytotoxic, partial curve, poor fit]. With `CS(=O)(=O)N(CC(O)Cn1c2ccccc2c2ccccc21)c1cccc2ccccc12` (stereo not drawn) the Potency was inconclusive: 29.1 µM [cytotoxic, single point]. For `CN(c1ccc(F)cc1)S(=O)(=O)c1ccc2[nH]cc(C(=O)O)c(=O)c2c1`, the Potency was inconclusive: 9.2 µM [rising, partial curve, poor fit]. With `CCC(CC)NC(=O)c1cc2c(C)nn(Cc3ccccc3Cl)c2s1` the Potency was active: 14.6 µM. For `Cc1ccc(C)c(N2CN(Cc3ccco3)CNC2=S)c1`, the Potency was inconclusive: 20.6 µM [cytotoxic, single point]. In the case of `O=C(NCc1ccc(Cl)cc1)c1cc(=O)[nH]c2ccc(S(=O)(=O)N3CCOCC3)cc12`, the Potency is reported as inconclusive: 3.26 µM [rising, partial curve]. For `O=C(Nc1ncc2c(n1)-c1ccccc1CC2)c1cccc(Cl)c1`, the Potency was inconclusive: 8.2 µM [cytotoxic, partial curve, poor fit]. With `CC(C)(C)c1nn2cnnc2n(/N=C/c2ccc(O)cc2)c1=O` the Potency was “inactive”. With `CC(=O)c1cccc(NC(=O)c2ccc(NC(=O)CCS(=O)(=O)c3cccs3)cc2)c1` the Potency was “inactive”. For `CC1(C)CC2(C)OC(=N)C1(C#N)C2(C#N)C#N` (stereo not drawn), the Potency was “inactive”. In the case of `Cc1cc(C)cc(NS(=O)(=O)c2ccc3c(c2)c(=O)n(C)c(=O)n3C)c1`, the Potency is reported as inconclusive: 18.4 µM [cytotoxic, single point]. In the case of `CCC(=O)N(CCC(c1ccccc1)c1ccc2c(c1)OCO2)Cc1ccc(OC(C)C)cc1` (stereo not drawn), the Potency is reported as inconclusive: 20.6 µM [cytotoxic, single point]. In the case of `CCOC(=O)C(=O)Cc1cccnn1`, the Potency is reported as “inactive”. In the case of `CCN(CC)CCNC(=O)C1(c2ccccc2)CCCCC1`, the Potency is reported as inconclusive: 29.1 µM [rising, single point]. For `CCOC(=O)c1c(NC(=O)c2ccc(S(=O)(=O)N(CC(C)C)CC(C)C)cc2)sc2c1CCN(C(=O)OCC)C2`, the Potency was “inactive”. With `CC(=O)Nc1ccc(C(=O)NNC(=O)c2cccc(C)c2)cc1` the Potency was inconclusive: 11.6 µM [rising, partial curve]. With `CCOC(=O)CSC1=C(C#N)C(c2ccccc2OCC)C(C(=O)OCC)C(=O)N1` (stereo not drawn) the Potency was “inactive”. With `CN(CCC(=O)Nc1ccc(Cl)cc1)Cc1ccccc1` the Potency was “inactive”. In the case of `c1ccc(-c2nnc(CSc3nc4ccccc4[nH]3)o2)cc1`, the Potency is reported as active: 13 µM. For `CCc1cccc(C)c1NC(=S)NCc1ccc2c(c1)cc(C)n2C`, the Potency was “inactive”. In the case of `CCCN(C(=O)Cn1cnc2onc(-c3ccc(F)cc3)c2c1=O)c1cccc(Cl)c1`, the activity change, negative = cytotoxicity is reported as inconclusive: 48.7%. With `CC1CSc2nc3sc4c(c3c(=O)n21)CCCC4` (stereo not drawn) the Potency was inconclusive: 16.4 µM [cytotoxic, single point]. With `COc1ccc(S(=O)(=O)Nc2ccc3c(c2)C(=O)N([C@H](C)CO)C[C@H](C)[C@@H](CN(C)S(=O)(=O)c2cn(C)cn2)OCCCC[C@H](C)O3)cc1` the Potency was inconclusive: 16.4 µM [rising, single point]. In the case of `COc1cc(NC(=O)Cn2cnc(S(=O)(=O)N3CCCC3)c2)cc(OC)c1OC`, the Potency is reported as inconclusive: 20.6 µM [rising, partial curve, poor fit]. In the case of `Cc1ccc(C(CC(=O)N2CCNCC2)c2ccccc2)c(O)c1C` (stereo not drawn), the Potency is reported as “inactive”. For `COc1ccc(-n2nc3c(c2NC(=O)COc2cccc(OC)c2)CS(=O)(=O)C3)cc1`, the Potency was “inactive”. With `CC(=O)Nc1ccc2c(c1)C(=O)N(c1ccc(C)cc1)C2=O` the Potency was inconclusive: 10.3 µM [rising, partial curve]. With `CCc1cc(C(=O)NC2CCCN(Cc3ccccc3F)C2)n(C)n1` (stereo not drawn) the Potency was inconclusive: 4.61 µM [cytotoxic, full curve, poor fit]. In the case of `CCOC(=O)C1CCN(S(=O)(=O)c2c[nH]c(=O)[nH]c2=O)CC1`, the Potency is reported as inconclusive: 20.6 µM [rising, partial curve, poor fit]. In the case of `Cc1nn(C)cc1C(=O)/C=C/c1ccc([N+](=O)[O-])cc1`, the Potency is reported as inconclusive: 32.6 µM [cytotoxic, single point]. For `COc1ccc(Br)cc1CNC(=O)Cn1nc(C)n2cccc2c1=O`, the Potency was “inactive”. With `O=C(Nc1ccc(OC(F)(F)F)cc1)Nc1cccnc1` the Potency was “inactive”. For `CCN(C(=O)c1cnc2ccc(C)cn2c1=O)c1ccccc1`, the Potency was inconclusive: 29.1 µM [rising, single point]. With `O=C(C1CCC1)N1CCc2cc(S(=O)(=O)NCC3COc4ccccc4O3)ccc21` (stereo not drawn) the Potency was inconclusive: 29.1 µM [cytotoxic, single point]. For `CN1/C(=C/C=N/NC(=O)c2ccc([N+](=O)[O-])cc2)C(C)(C)c2ccccc21`, the Potency was inconclusive: 23.1 µM [rising, single point]. For `CCc1nnc(NC(=O)CC23CC4CC(CC(Br)(C4)C2)C3)s1`, the Potency was “inactive”. In the case of `Cc1cc(NC(=O)C(C)(C)C)no1`, the Potency is reported as inconclusive: 23.1 µM [rising, single point]. In the case of `O=C(COc1ccccc1F)c1ccc(O)cc1O`, the Potency is reported as inconclusive: 23.1 µM [cytotoxic, single point]. In the case of `Cc1ccccc1Nc1nc(-c2cccnc2)nc2ccccc12`, the Potency is reported as “inactive”. In the case of `COC(=O)C1=C(C)NC(C)=C(C(=O)OC(C)C)C1c1cccc2nonc12` (stereo not drawn), the Potency is reported as inconclusive: 23.1 µM [cytotoxic, single point]. For `O=C(/C=C/c1ccccc1)NC(=S)Nc1ccc(N2CCOCC2)cc1`, the Potency was “inactive”. With `O=C1[C@H](Cc2ccccc2)NCCCC[C@@H](c2ccco2)N1Cc1ccccc1` the Potency was inconclusive: 11.6 µM [cytotoxic, partial curve]. In the case of `CCc1ccc(NC(=O)C2CCN(c3nn4c(=O)cc(C)nc4s3)CC2)cc1`, the Potency is reported as “inactive”. In the case of `CCC/C(=N\NC(=O)C1CC1)c1ccc(Br)cc1`, the Potency is reported as inconclusive: 23.1 µM [rising, single point]. For `CC(C)(C)NC(=O)NC(=O)COC(=O)c1c(F)cccc1Cl`, the Potency was inconclusive: 18.4 µM [cytotoxic, single point]. With `Cc1ccc(SC(C)C(=O)Nc2ccc(S(=O)(=O)N3CCOCC3)cc2)cc1` (stereo not drawn) the Potency was active: 11.6 µM. For `COCCCn1c(SCC(=O)Nc2nc3ccccc3s2)nnc1-c1ccoc1C`, the Potency was inconclusive: 10.3 µM [cytotoxic, partial curve, poor fit]. For `O=C(c1ccc(Cl)c([N+](=O)[O-])c1)N1CCN(c2ccccc2)CC1`, the Potency was inconclusive: 29.1 µM [cytotoxic, single point]. In the case of `CCC(=O)Nc1nnc(C(C)(C)C)s1`, the Potency is reported as “inactive”. For `CC(C)C(=O)NNS(=O)(=O)c1ccccc1[N+](=O)[O-]`, the Potency was inconclusive: 25.9 µM [rising, single point]. With `CC1(C)CC(Cc2ccc(C(=O)c3ccccc3)cc2)N(C(=O)OC(C)(C)C)N1` (stereo not drawn) the Potency was “inactive”. For `CC(O)CCC(=O)NNC(=S)Nc1ccccc1` (stereo not drawn), the Potency was inconclusive: 29.1 µM [rising, single point]. In the case of `CC(C)C(=O)N1CCC2(CC1)Oc1ccc(Cl)cc1C(=O)C21CC(c2cccnc2)=NO1` (stereo not drawn), the Potency is reported as “inactive”. With `COc1ccc(S(=O)(=O)N2Cc3ccccc3CC2C(=O)Nc2nccs2)cc1OC` (stereo not drawn) the Potency was inconclusive: 16.4 µM [cytotoxic, partial curve]. In the case of `N#Cc1ccccc1CSc1nc2ccc(NC(=O)c3ccccc3C(=O)O)cc2s1`, the Potency is reported as inconclusive: 0.092 µM [cytotoxic, full curve, poor fit]. With `Cc1ccc(-c2ccc(=O)n(Cc3ccc(F)cc3Cl)n2)cc1` the Potency was inconclusive: 18.4 µM [cytotoxic, single point]. With `CC(=O)CSc1nnc2[nH]c(=O)cc(N)n12` the Potency was inconclusive: 23.1 µM [rising, single point]. In the case of `COc1ccc(N(C(=O)C(C)C)S(=O)(=O)c2ccc(Cl)cc2)cc1`, the Potency is reported as active: 18.4 µM. With `Cc1cccc(-c2nnc(C3CCN(S(=O)(=O)c4cccc(Cl)c4)CC3)o2)c1` the Potency was “inactive”. With `O=C(CSc1nc2ccccc2c(=O)n1-c1ccc(F)cc1F)NC1CC1` the Potency was “inactive”. With `CC(C)CNC(=O)c1cccc(NC(=O)CSc2ccc(Cl)cc2)c1` the Potency was “inactive”. With `Cc1ccccc1-c1nnc(-c2ccccc2C)o1` the Potency was inconclusive: 18.4 µM [cytotoxic, partial curve, poor fit]. In the case of `O=C(COC(=O)CCS(=O)(=O)c1ccc(F)cc1)NC1CCCCC1`, the Potency is reported as inconclusive: 16.4 µM [rising, single point]. With `COc1ccc(N2CCN(C(=O)c3ccc(Cn4c(=S)[nH]c5ccc(N6CCOCC6)cc5c4=O)cc3)CC2)cc1` the Potency was inconclusive: 20.6 µM [cytotoxic, single point]. With `COc1ccc(Br)cc1CN1C(=O)c2ccccc2C1C(=O)NC1CCCCCC1` (stereo not drawn) the Potency was “inactive”. For `CN(C)CCCNC(=O)c1ccc(-c2nc(-c3ccc(Cl)cc3)cs2)cc1`, the Potency was inconclusive: 20.6 µM [cytotoxic, single point]. With `CCc1ccc(NC(=O)c2cnc(SC)nc2C)cc1` the Potency was “inactive”. With `O=C(CSc1nnc(-c2cccc(Br)c2)o1)N1CCNC1=O` the Potency was “inactive”. With `CCCOc1cccn2c(N(C=O)Cc3ccc(OC)cc3)c(CC)nc12` the Potency was inconclusive: 23.1 µM [cytotoxic, single point]. In the case of `COc1ccc(CNC(=O)CN(C)S(=O)(=O)c2ccc3c(c2)n(C)c(=O)c(=O)n3C)cc1`, the Potency is reported as inconclusive: 18.4 µM [rising, single point]. In the case of `CCCC(CCC(=O)Nc1ccc(C(=O)OCC)cc1)C(=O)O` (stereo not drawn), the Potency is reported as “inactive”. For `Cc1ccc(N2CCOCC2)c2c1C(=O)c1ccccc1C2=O`, the Potency was active: 14.6 µM. For `Cc1cc(C)cc(C(=O)NC(CC(N)=O)c2ccc(NCCN3CCCC3)c([N+](=O)[O-])c2)c1` (stereo not drawn), the Potency was inconclusive: 25.9 µM [rising, single point].
